Measured values taken from ChEMBL document CHEMBL3085714 (J Med Chem, 2013).
The source gives many values for each of these; only a part stands here.

How the values were obtained:
Homo sapiens [1] = organism: Homo sapiens; test: Selectivity for p38alpha MAP kinase (unknown origin) over VEGF-R2 (unknown origin)
Homo sapiens [2] = organism: Homo sapiens; test: Selectivity for p38alpha MAP kinase (unknown origin) over STK33 (unknown origin)
Homo sapiens [3] = organism: Homo sapiens; test: Selectivity for p38alpha MAP kinase (unknown origin) over S6K-beta (unknown origin)
Homo sapiens [4] = organism: Homo sapiens; test: Selectivity for p38alpha MAP kinase (unknown origin) over RPS6KA6 (unknown origin)
Homo sapiens [5] = organism: Homo sapiens; test: Selectivity for p38alpha MAP kinase (unknown origin) over RPS6KA3 (unknown origin)
Homo sapiens [6] = organism: Homo sapiens; test: Selectivity for p38alpha MAP kinase (unknown origin) over CDK7/CycH/MAT1 (unknown origin)
Homo sapiens [7] = organism: Homo sapiens; test: Selectivity for p38alpha MAP kinase (unknown origin) over CDK3/CycE (unknown origin)
Homo sapiens [8] = organism: Homo sapiens; test: Selectivity for p38alpha MAP kinase (unknown origin) over CAMK2D (unknown origin)
Homo sapiens [9] = organism: Homo sapiens; test: Selectivity for p38alpha MAP kinase (unknown origin) over BRK (unknown origin)
Homo sapiens [10] = organism: Homo sapiens; test: Selectivity for p38alpha MAP kinase (unknown origin) over B-RAF V600E (unknown origin)
Homo sapiens [11] = organism: Homo sapiens; test: Selectivity for p38alpha MAP kinase (unknown origin) over AMPK alpha1 (unknown origin)
Homo sapiens [12] = organism: Homo sapiens; test: Selectivity for p38alpha MAP kinase (unknown origin) over AKT2 (unknown origin)
Homo sapiens [13] = organism: Homo sapiens; test: Selectivity for p38alpha MAP kinase (unknown origin) over ACV-R1 (unknown origin)
Homo sapiens [14] = organism: Homo sapiens; test: Selectivity for p38alpha MAP kinase (unknown origin) over PRKG1 (unknown origin)
Homo sapiens [15] = organism: Homo sapiens; test: Selectivity for p38alpha MAP kinase (unknown origin) over PRK1 (unknown origin)
Homo sapiens [16] = organism: Homo sapiens; test: Selectivity for p38alpha MAP kinase (unknown origin) over PLK3 (unknown origin)
Homo sapiens [17] = organism: Homo sapiens; test: Selectivity for p38alpha MAP kinase (unknown origin) over PKC-eta (unknown origin)
Homo sapiens [18] = organism: Homo sapiens; test: Selectivity for p38alpha MAP kinase (unknown origin) over PKA (unknown origin)
Homo sapiens [19] = organism: Homo sapiens; test: Selectivity for p38alpha MAP kinase (unknown origin) over PIM3 (unknown origin)
Homo sapiens [20] = organism: Homo sapiens; test: Selectivity for p38alpha MAP kinase (unknown origin) over PAK7 (unknown origin)
Homo sapiens [21] = organism: Homo sapiens; test: Selectivity for p38alpha MAP kinase (unknown origin) over p38-delta (unknown origin)
Homo sapiens [22] = organism: Homo sapiens; test: Selectivity for p38alpha MAP kinase (unknown origin) over NEK3 (unknown origin)
Homo sapiens [23] = organism: Homo sapiens; test: Selectivity for p38alpha MAP kinase (unknown origin) over MST4 (unknown origin)
Homo sapiens [24] = organism: Homo sapiens; test: Selectivity for p38alpha MAP kinase (unknown origin) over MKNK2 (unknown origin)
Homo sapiens [25] = organism: Homo sapiens; test: Selectivity for p38alpha MAP kinase (unknown origin) over MET Y1230C mutant (unknown origin)
Homo sapiens [26] = organism: Homo sapiens; test: Selectivity for p38alpha MAP kinase (unknown origin) over MET M1250T mutant (unknown origin)
Homo sapiens [27] = organism: Homo sapiens; test: Selectivity for p38alpha MAP kinase (unknown origin) over MEKK3 (unknown origin)
Homo sapiens [28] = organism: Homo sapiens; test: Selectivity for p38alpha MAP kinase (unknown origin) over MAPKAPK2 (unknown origin)
Homo sapiens [29] = organism: Homo sapiens; test: Selectivity for p38alpha MAP kinase (unknown origin) over MAP4K4 (unknown origin)
Homo sapiens [30] = organism: Homo sapiens; test: Selectivity for p38alpha MAP kinase (unknown origin) over LRRK2 I2020T mutant (unknown origin)
Homo sapiens [31] = organism: Homo sapiens; test: Selectivity for p38alpha MAP kinase (unknown origin) over JAK1 (unknown origin)
Homo sapiens [32] = organism: Homo sapiens; test: Selectivity for p38alpha MAP kinase (unknown origin) over IKK-beta (unknown origin)
Homo sapiens [33] = organism: Homo sapiens; test: Selectivity for p38alpha MAP kinase (unknown origin) over FGFR3 K650E mutant (unknown origin)
Homo sapiens [34] = organism: Homo sapiens; test: Selectivity for p38alpha MAP kinase (unknown origin) over FES (unknown origin)
Homo sapiens [35] = organism: Homo sapiens; test: Selectivity for p38alpha MAP kinase (unknown origin) over EPHA2 (unknown origin)
Homo sapiens [36] = organism: Homo sapiens; test: Selectivity for p38alpha MAP kinase (unknown origin) over DYRK4 (unknown origin)
Homo sapiens [37] = organism: Homo sapiens; test: Selectivity for p38alpha MAP kinase (unknown origin) over DYRK3 (unknown origin)
Homo sapiens [38] = organism: Homo sapiens; test: Selectivity for p38alpha MAP kinase (unknown origin) over DDR2 (unknown origin)
Homo sapiens [39] = organism: Homo sapiens; test: Selectivity for p38alpha MAP kinase (unknown origin) over CK1-gamma3 (unknown origin)
Homo sapiens [40] = organism: Homo sapiens; test: Selectivity for p38alpha MAP kinase (unknown origin) over CK1-gamma2 (unknown origin)

Measured: Selectivity ratio

Cc1cc(F)c(NC(=O)c2ccsc2)cc1Nc1ccc2c(c1)OCc1ccc(OC[C@H](O)CO)cc1C2=O
> 1000: all assays above
